Source: PMC4357442
These are yes or no findings as the source states them, for the method shown. Binding seen in cells or lysates may run through a third protein. Some binding calls cover weakened binding; strength is not graded here. Sequences can lack the tags named with a protein.

T1: Smc5-6Flag (S. cerevisiae (budding yeast)) (UniProt Q08204)
T1 sequence: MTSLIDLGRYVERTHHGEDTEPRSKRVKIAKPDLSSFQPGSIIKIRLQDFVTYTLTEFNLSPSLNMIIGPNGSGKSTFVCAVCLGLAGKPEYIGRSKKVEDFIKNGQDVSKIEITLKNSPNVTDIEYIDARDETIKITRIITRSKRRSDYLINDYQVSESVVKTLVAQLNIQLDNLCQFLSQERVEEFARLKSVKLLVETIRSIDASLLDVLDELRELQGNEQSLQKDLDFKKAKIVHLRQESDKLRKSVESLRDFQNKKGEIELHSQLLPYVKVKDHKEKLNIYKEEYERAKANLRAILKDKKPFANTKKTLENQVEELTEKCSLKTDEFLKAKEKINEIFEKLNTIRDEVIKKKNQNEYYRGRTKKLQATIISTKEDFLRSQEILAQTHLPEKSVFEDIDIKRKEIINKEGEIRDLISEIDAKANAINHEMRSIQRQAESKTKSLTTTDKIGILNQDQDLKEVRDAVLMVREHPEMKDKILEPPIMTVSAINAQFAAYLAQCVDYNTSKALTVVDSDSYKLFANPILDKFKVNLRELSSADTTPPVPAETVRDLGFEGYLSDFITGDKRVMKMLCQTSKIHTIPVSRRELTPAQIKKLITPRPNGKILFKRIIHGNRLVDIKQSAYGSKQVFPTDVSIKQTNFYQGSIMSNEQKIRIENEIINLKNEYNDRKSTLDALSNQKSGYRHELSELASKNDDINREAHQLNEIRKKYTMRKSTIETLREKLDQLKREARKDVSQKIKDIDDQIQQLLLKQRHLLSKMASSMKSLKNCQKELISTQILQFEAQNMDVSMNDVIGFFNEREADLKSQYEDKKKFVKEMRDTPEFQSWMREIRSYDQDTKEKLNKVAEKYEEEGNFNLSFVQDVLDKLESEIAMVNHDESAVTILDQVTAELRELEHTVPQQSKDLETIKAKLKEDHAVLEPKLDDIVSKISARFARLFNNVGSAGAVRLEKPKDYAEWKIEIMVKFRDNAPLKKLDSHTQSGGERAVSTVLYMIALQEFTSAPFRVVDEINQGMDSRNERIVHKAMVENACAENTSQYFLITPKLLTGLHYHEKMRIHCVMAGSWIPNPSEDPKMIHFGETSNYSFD

T2: Mms21-3HA (S. cerevisiae (budding yeast)) (UniProt P38632)
T2 sequence: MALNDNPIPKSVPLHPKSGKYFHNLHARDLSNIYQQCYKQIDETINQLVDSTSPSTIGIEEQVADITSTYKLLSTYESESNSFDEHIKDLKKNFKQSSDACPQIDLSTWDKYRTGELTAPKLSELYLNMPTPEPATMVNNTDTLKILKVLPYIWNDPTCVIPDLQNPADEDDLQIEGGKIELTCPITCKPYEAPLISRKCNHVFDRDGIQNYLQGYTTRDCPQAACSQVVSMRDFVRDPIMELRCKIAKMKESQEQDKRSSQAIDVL

T3: Mms21-6HA (S. cerevisiae (budding yeast)) (UniProt P38632)
T3 sequence: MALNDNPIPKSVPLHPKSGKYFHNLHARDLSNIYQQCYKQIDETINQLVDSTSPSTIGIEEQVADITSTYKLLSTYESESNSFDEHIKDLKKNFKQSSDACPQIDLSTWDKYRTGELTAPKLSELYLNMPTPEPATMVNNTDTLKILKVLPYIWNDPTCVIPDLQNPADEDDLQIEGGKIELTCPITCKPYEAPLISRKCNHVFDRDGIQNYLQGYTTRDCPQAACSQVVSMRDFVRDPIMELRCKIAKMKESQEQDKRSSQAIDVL

T4: Nse4-6HA (S. cerevisiae (budding yeast)) (UniProt P43124)
T4 sequence: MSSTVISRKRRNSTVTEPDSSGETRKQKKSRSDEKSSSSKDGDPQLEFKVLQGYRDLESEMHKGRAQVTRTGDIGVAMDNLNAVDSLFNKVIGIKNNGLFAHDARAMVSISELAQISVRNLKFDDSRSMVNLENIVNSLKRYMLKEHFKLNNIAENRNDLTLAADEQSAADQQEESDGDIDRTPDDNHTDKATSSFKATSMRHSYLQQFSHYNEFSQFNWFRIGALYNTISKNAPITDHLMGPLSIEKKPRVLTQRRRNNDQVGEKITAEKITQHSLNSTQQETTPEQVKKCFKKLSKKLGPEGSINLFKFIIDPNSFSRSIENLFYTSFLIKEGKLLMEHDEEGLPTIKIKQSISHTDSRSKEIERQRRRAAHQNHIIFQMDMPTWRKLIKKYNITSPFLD


How the values were obtained:
[1] = target: T1, Smc5-6Flag (S. cerevisiae (budding yeast)); assay: co-IP; Smc5-6Flag immunoprecipitation (anti-FLAG M2 gel) from wild type, nse3-2 or nse5-2 cells kept at 25°C or shifted to 37°C for 2 h; western blot of 9myc-tagged Nse proteins or Mms21-6HA
[2] = target: T2, Mms21-3HA (S. cerevisiae (budding yeast)); assay: co-IP; Mms21-3HA immunoprecipitated from exponentially growing cells transformed with SMC5-expressing centromeric plasmids
[3] = target: T3, Mms21-6HA (S. cerevisiae (budding yeast)); assay: co-IP; anti-HA immunoprecipitation from MMS21-6HA or NSE4-6HA yeast cells transformed with centromeric plasmids expressing SMC5-9myc alleles; western blot
[4] = target: T4, Nse4-6HA (S. cerevisiae (budding yeast)); assay: as above

binding [1]	Binder	other results
binds	Mms21-6HA (protein, UniProt P38632 1-267) MALNDNPIPKSVPLHPKSGKYFHNLHARDLSNIYQQCYKQIDETINQLVDSTSPSTIGIEEQVADITSTYKLLSTYESESNSFDEHIKDLKKNFKQSSDACPQIDLSTWDKYRTGELTAPKLSELYLNMPTPEPATMVNNTDTLKILKVLPYIWNDPTCVIPDLQNPADEDDLQIEGGKIELTCPITCKPYEAPLISRKCNHVFDRDGIQNYLQGYTTRDCPQAACSQVVSMRDFVRDPIMELRCKIAKMKESQEQDKRSSQAIDVL	
binds	Nse3-9myc (wild type) (protein, UniProt Q05541 1-303) MSSIDNDSDVDLTEDLAVAKIVKENPVARKMVRYILSRGESQNSIITRNKLQSVIHEAAREENIAKPSFSKMFMDINAILYNVYGFELQGLPSKNNMNAGGNGSNSNTNKSMPEPLGHRAQKFILLNNVPHSKNFDDFKILQSAHTYEELIVTGEYIGDDIASGTSNTLESKLSTDRDLVYKGVLSVILCIVFFSKNNILHQELIKFLETFGIPSDGSKIAILNITIEDLIKSLEKREYIVRLEEKSDTDGEVISYRIGRRTQAELGLESLEKLVQEIMGLEKEQTKSLHDDIIKSIGDSYSI	
binds	Nse5-9myc (wild type) (protein, UniProt Q03718 1-556) MDGALINSVLYVSPRNGAHYFVELTEKHLLAFEMLNSMCLLENYDHVLLFLECQFGKSHNLAVIPFDIILVLFTLSTLSEYYKEPILRANDPYNTSRETLSRRALKLLQKYLAILKEFDSEQYNLYDLELLRCQFFLAIDTLTPKKQKWGFDRFRRTKSESGVTYRQNASVDPELDQAKTFKNPYRSYISCLEQRNTILGNRLLNLKLNEPGEFINMILWTLSNSLQESTPLFLSSHEIWMPLLEILIDLFSCRQDYFIQHEVAQNVSKSLFVQRLSESPLAVFFESLNTRNFANRFSEYVFLNCDYKLPSDNYATPVHPVYNGENTIVDTYIPTIKCSPLYKSQKSLALRRKLIGSCFKLLLRVPDGHRLITPRIVADDVIQGISRTLASFNDILQFKKFFMTENLSQESYFIPLLAEGTLSEILKDTQECVVILTLVENLSDGVSFCNEVIGLVKSKCFAFTEQCSQASYEEAVLNIEKCDVCLLVLLRYLLHLIGTEAILDAKEQLEMLHAIEKNDSGRRQWAKALNLGNDPPLLYPIVSQMFGVHDKSVIIE	
	smc5(K75I)-9myc (protein, UniProt Q08204 1-1093) MTSLIDLGRYVERTHHGEDTEPRSKRVKIAKPDLSSFQPGSIIKIRLQDFVTYTLTEFNLSPSLNMIIGPNGSGISTFVCAVCLGLAGKPEYIGRSKKVEDFIKNGQDVSKIEITLKNSPNVTDIEYIDARDETIKITRIITRSKRRSDYLINDYQVSESVVKTLVAQLNIQLDNLCQFLSQERVEEFARLKSVKLLVETIRSIDASLLDVLDELRELQGNEQSLQKDLDFKKAKIVHLRQESDKLRKSVESLRDFQNKKGEIELHSQLLPYVKVKDHKEKLNIYKEEYERAKANLRAILKDKKPFANTKKTLENQVEELTEKCSLKTDEFLKAKEKINEIFEKLNTIRDEVIKKKNQNEYYRGRTKKLQATIISTKEDFLRSQEILAQTHLPEKSVFEDIDIKRKEIINKEGEIRDLISEIDAKANAINHEMRSIQRQAESKTKSLTTTDKIGILNQDQDLKEVRDAVLMVREHPEMKDKILEPPIMTVSAINAQFAAYLAQCVDYNTSKALTVVDSDSYKLFANPILDKFKVNLRELSSADTTPPVPAETVRDLGFEGYLSDFITGDKRVMKMLCQTSKIHTIPVSRRELTPAQIKKLITPRPNGKILFKRIIHGNRLVDIKQSAYGSKQVFPTDVSIKQTNFYQGSIMSNEQKIRIENEIINLKNEYNDRKSTLDALSNQKSGYRHELSELASKNDDINREAHQLNEIRKKYTMRKSTIETLREKLDQLKREARKDVSQKIKDIDDQIQQLLLKQRHLLSKMASSMKSLKNCQKELISTQILQFEAQNMDVSMNDVIGFFNEREADLKSQYEDKKKFVKEMRDTPEFQSWMREIRSYDQDTKEKLNKVAEKYEEEGNFNLSFVQDVLDKLESEIAMVNHDESAVTILDQVTAELRELEHTVPQQSKDLETIKAKLKEDHAVLEPKLDDIVSKISARFARLFNNVGSAGAVRLEKPKDYAEWKIEIMVKFRDNAPLKKLDSHTQSGGERAVSTVLYMIALQEFTSAPFRVVDEINQGMDSRNERIVHKAMVENACAENTSQYFLITPKLLTGLHYHEKMRIHCVMAGSWIPNPSEDPKMIHFGETSNYSFD	binding [2]: binds
	smc5-S1-9myc (protein, UniProt Q08204 1-1093) MTSLIDLGRYVERTHHGEDTEPRSKRVKIAKPDLSSFQPGSIIKIRLQDFVTYTLTEFNLSPSLNMIIGPNGSGKSTFVCAVCLGLAGKPEYIGRSKKVEDFIKNGQDVSKIEITLKNSPNVTDIEYIDARDETIKITRIITRSKRRSDYLINDYQVSESVVKTLVAQLNIQLDNLCQFLSQERVEEFARLKSVKLLVETIRSIDASLLDVLDELRELQGNEQSLQKDLDFKKAKIVHLRQESDKLRKSVESLRDFQNKKGEIELHSQLLPYVKVKDHKEKLNIYKEEYERAKANLRAILKDKKPFANTKKTLENQVEELTEKCSLKTDEFLKAKEKINEIFEKLNTIRDEVIKKKNQNEYYRGRTKKLQATIISTKEDFLRSQEILAQTHLPEKSVFEDIDIKRKEIINKEGEIRDLISEIDAKANAINHEMRSIQRQAESKTKSLTTTDKIGILNQDQDLKEVRDAVLMVREHPEMKDKILEPPIMTVSAINAQFAAYLAQCVDYNTSKALTVVDSDSYKLFANPILDKFKVNLRELSSADTTPPVPAETVRDLGFEGYLSDFITGDKRVMKMLCQTSKIHTIPVSRRELTPAQIKKLITPRPNGKILFKRIIHGNRLVDIKQSAYGSKQVFPTDVSIKQTNFYQGSIMSNEQKIRIENEIINLKNEYNDRKSTLDALSNQKSGYRHELSELASKNDDINREAHQLNEIRKKYTMRKSTIETLREKLDQLKREARKDVSQKIKDIDDQIQQLLLKQRHLLSKMASSMKSLKNCQKELRSTQRLQAEAQAMDVSMNDVIGFFNEREADLKSQYEDKKKFVKEMRDTPEFQSWMREIRSYDQDTKEKLNKVAEKYEEEGNFNLSFVQDVLDKLESEIAMVNHDESAVTILDQVTAELRELEHTVPQQSKDLETIKAKLKEDHAVLEPKLDDIVSKISARFARLFNNVGSAGAVRLEKPKDYAEWKIEIMVKFRDNAPLKKLDSHTQSGGERAVSTVLYMIALQEFTSAPFRVVDEINQGMDSRNERIVHKAMVENACAENTSQYFLITPKLLTGLHYHEKMRIHCVMAGSWIPNPSEDPKMIHFGETSNYSFD	binding [3]: no binding; binding [4]: binds
